No constants are given. Whether binding was seen depends on the method and setting. Some results given as binding are weak or reduced against the parent protein; the word gives no strength. Tags and fused reporters may be left off the sequences shown.
Key:
[1] = target: human GAAP (hGAAP), C-terminally HA-tagged (human) (UniProt Q9HC24); test: SDS-PAGE with DTT
[2] = target: hGAAP TMD5–6 (residues 145–238), C-terminal HA fusion (human) (UniProt Q9HC24); test: non-reducing SDS-PAGE

binding [1]	binding [2]	Binder
binds		human GAAP (hGAAP), C-terminally HA-tagged (protein, UniProt Q9HC24 1-238) MADPDPRYPRSSIEDDFNYGSSVASATVHIRMAFLRKVYSILSLQVLLTTVTSTVFLYFESVRTFVHESPALILLFALGSLGLIFALILNRHKYPLNLYLLFGFTLLEALTVAVVVTFYDVYIILQAFILTTTVFFGLTVYTLQSKKDFSKFGAGLFALLWILCLSGFLKFFFYSEIMELVLAAAGALLFCGFIIYDTHSLMHKLSPEEYVLAAISLYLDIINLFLHLLRFLEAVNKK
	no binding	hGAAP TMD5–6 (residues 145–238), C-terminal HA fusion (domain or fragment, UniProt Q9HC24 145-238) SKKDFSKFGAGLFALLWILCLSGFLKFFFYSEIMELVLAAAGALLFCGFIIYDTHSLMHKLSPEEYVLAAISLYLDIINLFLHLLRFLEAVNKK

— publication PMC3642348
